Measurements from patent US20080305111A1, “Anti-C35 antibodies for treating cancer” (VACCINEX, INC., priority 2006, published 2008).
No constants are given. Whether binding was seen depends on the method and setting. Some entries that bind do so weakly or less than the wild type.

Legend:
[1] = target: T1, C35 (native human C35 as expressed in cells) (human) (UniProt Q9BRT3); experiment: flow cytometry, 100 ng 1F2-Alexa 647 pre-incubated with PAB buffer, 21MT1 cells 24 hours after 0.5 uM Taxol, gate annexin V positive/PI negative
T1 sequence: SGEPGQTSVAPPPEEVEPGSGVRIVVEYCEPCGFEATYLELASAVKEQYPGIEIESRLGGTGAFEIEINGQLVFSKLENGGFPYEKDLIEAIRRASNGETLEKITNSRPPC

[2] = target: T1, C35 (native human C35 as expressed in cells) (human); experiment: flow cytometry, 1F2-Alexa 647 on mitomycin C treated breast tumor cells
[3] = target: T1, C35 (native human C35 as expressed in cells) (human); experiment: flow cytometry, 50 ng 1F2-Alexa 647 against mouse IgG control-Alexa 647, cells irradiated with 300 Gy, gate Annexin V positive/PI negative (cells labelled 21NT on the sheet, 21MT1 in the legend)
[4] = target: T1, C35 (native human C35 as expressed in cells) (human); experiment: immunohistochemistry; also immunoprecipitation from cell lysates
[5] = target: T1, C35 (native human C35 as expressed in cells) (human); experiment: flow cytometry, 50 ng 1F2-Alexa 647 against mouse IgG control-Alexa 647, cells treated with 6 µg/ml mitomycin C for 48 hours, gate Annexin V positive/PI negative (cells labelled 21NT on the sheet)
[6] = target: T1, C35 (native human C35 as expressed in cells) (human); experiment: flow cytometry, Alexa-647 conjugated 1F2 against isotype control, cells dissociated from tumors grown in vivo
[7] = target: T1, C35 (native human C35 as expressed in cells) (human); experiment: flow cytometry, 1F2-Alexa 647 on irradiated 21MT1 breast tumor cells
[8] = target: T1, C35 (native human C35 as expressed in cells) (human); experiment: flow cytometry, 50 ng 1F2-Alexa 647 on irradiated breast tumor cells
[9] = target: T1, C35 (native human C35 as expressed in cells) (human); experiment: flow cytometry, 50 ng 1F2-Alexa 647 on mitomycin C treated breast tumor cells
[10] = target: T1, C35 (native human C35 as expressed in cells) (human); experiment: immunofluorescence on human mammary cell lines
[11] = target: T1, C35 (native human C35 as expressed in cells) (human); experiment: immunoprecipitation from 21MT1-D cell lysate, Western blot with rabbit anti-C35 polyclonal sera
[12] = target: T1, C35 (native human C35 as expressed in cells) (human); experiment: Western blot, MAb163 at 4.4 ug/ml
[13] = target: T1, C35 (native human C35 as expressed in cells) (human); experiment: intracellular flow cytometry, fixed and permeabilized cells, 1 µg antibody labelled with Alexa-647 per 0.5 million cells
[14] = target: T1, C35 (native human C35 as expressed in cells) (human); experiment: immunofluorescence on paraformaldehyde-fixed cells, MAb163 then anti-human IgG-APC, read on FMAT
[15] = target: T1, C35 (native human C35 as expressed in cells) (human); experiment: Western blot of 21MT1-D tumor cell lysate
[16] = target: T1, C35 (native human C35 as expressed in cells) (human); experiment: Western blot of 21MT1-D tumor cell lysate, MAb163 at 4.4 ug/ml
[17] = target: T1, C35 (native human C35 as expressed in cells) (human); experiment: immunofluorescence (FMAT) on paraformaldehyde-fixed 21MT1-D cells, 0.1 to 3 µg/ml
[18] = target: T1, C35 (native human C35 as expressed in cells) (human); experiment: intracellular flow cytometry on fixed and permeabilised 21MT1 cells, 1 µg antibody
[19] = target: T1, C35 (native human C35 as expressed in cells) (human); experiment: immunoprecipitation from cell lysates and detection

Measured: binding

B1: 1F2 murine anti-C35 monoclonal antibody (antibody, V domains shown)
VH: DVQLQESGPGLVKPSQSLSLTCSVTGYSITSGYFWNWIRQFPGNKLEWMGYISYDGSNNSNPSLKNRISFTRDTSKNQFFLKFNSVTTDDSAAYYCTRGTTGFAYWGQGTLVTVSA
VL: QIVLTQSPAIMSASPGEKVTISCSASSSVSYMNWYQQKPGSSPKPWIYHTSNLASGVPARFSGSGSGTSYSLTISSMEAEDAATYYCQQYHSYPPTFGGGTKLEIK
binds: [1] | [2] | [3] | [4] | [5] | [6] | [7] | [8] | [9]

B2: MAb 163 human anti-C35 monoclonal antibody (antibody, V domains shown)
VH: EVQLVESGGGLVKPGGSLRLSCEVSGITFSNAWMSWVRQAPGKGLEWVGRIKSKTDGGTTDYAAPVKGRFTISRDDSKNTLYLQMNSLKTEDTAVYYCSIGYYYDSSFKYGMDVWGQGTTVTVSS
VL: DIQMTQSPATLSASVGDRVTITCRASQSISRWLAWYQQKPGQAPKVLIYKASTLQSGVPSRFSGSGSGTEFSLTINSLQPDDFATYYCQQYYSYLRTFGQGTKLEIK
binds: [10] | [11] | [12] | [13] | [14] | [15] | [16] | [17] | [18]

B3: MAb 11 (1B3 anti-C35 immunoglobulin variable regions linked to human constant regions) (antibody, V domains shown)
VH: EVQLQESGPSLVKPSQTLSLTCSVTGDSITSGYWNWIRKFPGNKLEYVGYISYSGGTYYNPSLKSRISITRDTSKNHYYLQLNSVTTEDTATYYCARGAYYGGAFFPYFDVWGAGTTVTVSS
VL: DVQITQSPSFLAASPGETITINCRASKYISKHLVWYQEKPGETKKLLIYSGSTLQSGLPSRFSGSGSGTDFTLTISSLEPEDFAMYYCQQHNEYPLTFGAGTKLELK
binds: [13] | [18]

B4: 1B3 murine anti-C35 monoclonal antibody (antibody, V domains shown)
VH: EVQLQESGPSLVKPSQTLSLTCSVTGDSITSGYWNWIRKFPGNKLEYVGYISYSGGTYYNPSLKSRISITRDTSKNHYYLQLNSVTTEDTATYYCARGAYYGGAFFPYFDVWGAGTTVTVSS
VL: DVQITQSPSFLAASPGETITINCRASKYISKHLVWYQEKPGETKKLLIYSGSTLQSGLPSRFSGSGSGTDFTLTISSLEPEDFAMYYCQQHNEYPLTFGAGTKLELK
binds: [19]
